The list shows a part of the results.
Assays:
Assay in all cases: log2 fold change, soluble protein after heating vs DMSO (PISA); higher = thermal stabilisation; K562 cells, 10 uM, 30 min; active = over 0.2 and 3.5 SD of the protein, either way, in both replicates (recomputed)
[1] = compound: NC(=O)Nc1cc(-c2cccc(F)c2)sc1C(=O)N[C@H]1CCCNC1
In short: (§1)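 Thermal stability values are relative to control samples and come from duplicates. They are expressed as log2 fold changes. For measurement, K562 cells (2×10^6 cells/mL) received 10 μM compound for 30 min, and aliquots were heated for 3 min over 48°C-58°C, pooled, and extracted at 4°C in PBS with 0.5% NP-40. Soluble protein, the supernatant after 21,000xg for 90 min, was quantified by TMTpro 16plex LC-MS/MS with equalised channel sums.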

The chains behind the UniProt entries cited, without tags or fusion partners. Where a name states a change or a piece, a line headed by the entry shows the natural chain unless it says otherwise.
UniProt Q13151: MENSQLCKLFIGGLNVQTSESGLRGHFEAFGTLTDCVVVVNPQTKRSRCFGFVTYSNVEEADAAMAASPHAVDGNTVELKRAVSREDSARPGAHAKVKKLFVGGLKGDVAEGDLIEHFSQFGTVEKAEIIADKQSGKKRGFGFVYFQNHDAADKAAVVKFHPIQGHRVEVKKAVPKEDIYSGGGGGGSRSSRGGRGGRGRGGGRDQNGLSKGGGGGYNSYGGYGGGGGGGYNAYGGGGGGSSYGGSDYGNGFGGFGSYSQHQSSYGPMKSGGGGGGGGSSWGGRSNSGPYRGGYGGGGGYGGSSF
UniProt P17096: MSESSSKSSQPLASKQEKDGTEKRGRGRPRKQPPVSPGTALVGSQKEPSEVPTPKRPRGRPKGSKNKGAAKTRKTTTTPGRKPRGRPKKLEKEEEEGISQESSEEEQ
UniProt Q8WVV9: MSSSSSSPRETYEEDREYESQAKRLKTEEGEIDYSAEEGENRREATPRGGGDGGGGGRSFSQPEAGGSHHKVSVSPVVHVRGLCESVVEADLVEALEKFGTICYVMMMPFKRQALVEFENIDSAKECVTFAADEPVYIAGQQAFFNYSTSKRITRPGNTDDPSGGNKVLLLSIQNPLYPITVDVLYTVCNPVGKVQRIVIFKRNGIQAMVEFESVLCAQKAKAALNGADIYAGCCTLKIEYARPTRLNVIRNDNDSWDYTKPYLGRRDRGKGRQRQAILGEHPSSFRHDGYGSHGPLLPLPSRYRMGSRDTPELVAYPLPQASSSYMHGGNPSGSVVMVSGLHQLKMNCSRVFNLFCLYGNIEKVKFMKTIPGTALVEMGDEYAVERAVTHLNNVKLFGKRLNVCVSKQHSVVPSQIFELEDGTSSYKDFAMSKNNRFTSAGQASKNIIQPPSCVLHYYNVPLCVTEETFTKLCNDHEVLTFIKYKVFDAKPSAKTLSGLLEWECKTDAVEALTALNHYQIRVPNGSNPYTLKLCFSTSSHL
UniProt Q9BTY7: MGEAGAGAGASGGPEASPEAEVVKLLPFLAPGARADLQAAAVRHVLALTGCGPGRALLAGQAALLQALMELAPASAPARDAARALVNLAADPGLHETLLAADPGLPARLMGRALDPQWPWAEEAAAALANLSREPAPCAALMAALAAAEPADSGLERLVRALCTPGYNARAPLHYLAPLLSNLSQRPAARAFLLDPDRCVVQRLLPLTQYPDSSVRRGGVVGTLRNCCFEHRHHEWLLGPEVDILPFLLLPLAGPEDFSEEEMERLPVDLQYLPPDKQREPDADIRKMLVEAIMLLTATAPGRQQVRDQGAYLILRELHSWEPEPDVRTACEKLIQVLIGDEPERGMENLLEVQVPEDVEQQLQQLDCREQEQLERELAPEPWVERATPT
UniProt P05362: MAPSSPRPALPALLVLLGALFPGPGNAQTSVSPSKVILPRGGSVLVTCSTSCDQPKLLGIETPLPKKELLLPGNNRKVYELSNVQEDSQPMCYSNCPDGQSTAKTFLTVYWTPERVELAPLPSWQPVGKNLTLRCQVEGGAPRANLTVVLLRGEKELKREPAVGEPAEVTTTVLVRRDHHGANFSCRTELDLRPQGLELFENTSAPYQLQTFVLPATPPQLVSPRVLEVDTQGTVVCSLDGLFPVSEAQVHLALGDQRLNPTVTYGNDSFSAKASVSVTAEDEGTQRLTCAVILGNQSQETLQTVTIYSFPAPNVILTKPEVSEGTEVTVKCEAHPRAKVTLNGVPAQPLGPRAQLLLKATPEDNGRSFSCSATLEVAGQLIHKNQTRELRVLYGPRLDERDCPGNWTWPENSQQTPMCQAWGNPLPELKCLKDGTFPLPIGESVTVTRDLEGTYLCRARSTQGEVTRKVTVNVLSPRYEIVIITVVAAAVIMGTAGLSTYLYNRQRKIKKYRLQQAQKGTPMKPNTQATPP
UniProt P31943: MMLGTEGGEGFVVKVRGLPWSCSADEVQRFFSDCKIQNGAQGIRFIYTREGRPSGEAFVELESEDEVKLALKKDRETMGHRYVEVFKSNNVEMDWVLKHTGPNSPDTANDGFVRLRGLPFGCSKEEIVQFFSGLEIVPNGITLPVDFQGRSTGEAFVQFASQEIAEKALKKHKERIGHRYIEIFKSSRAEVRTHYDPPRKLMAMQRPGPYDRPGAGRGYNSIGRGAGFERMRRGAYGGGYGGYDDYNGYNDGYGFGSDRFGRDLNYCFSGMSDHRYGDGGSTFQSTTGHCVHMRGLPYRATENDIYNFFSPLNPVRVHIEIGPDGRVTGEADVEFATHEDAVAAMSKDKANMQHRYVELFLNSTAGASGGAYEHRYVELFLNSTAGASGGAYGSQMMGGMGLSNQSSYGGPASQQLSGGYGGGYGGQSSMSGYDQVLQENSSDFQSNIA
UniProt Q00839, whole entry, looked up: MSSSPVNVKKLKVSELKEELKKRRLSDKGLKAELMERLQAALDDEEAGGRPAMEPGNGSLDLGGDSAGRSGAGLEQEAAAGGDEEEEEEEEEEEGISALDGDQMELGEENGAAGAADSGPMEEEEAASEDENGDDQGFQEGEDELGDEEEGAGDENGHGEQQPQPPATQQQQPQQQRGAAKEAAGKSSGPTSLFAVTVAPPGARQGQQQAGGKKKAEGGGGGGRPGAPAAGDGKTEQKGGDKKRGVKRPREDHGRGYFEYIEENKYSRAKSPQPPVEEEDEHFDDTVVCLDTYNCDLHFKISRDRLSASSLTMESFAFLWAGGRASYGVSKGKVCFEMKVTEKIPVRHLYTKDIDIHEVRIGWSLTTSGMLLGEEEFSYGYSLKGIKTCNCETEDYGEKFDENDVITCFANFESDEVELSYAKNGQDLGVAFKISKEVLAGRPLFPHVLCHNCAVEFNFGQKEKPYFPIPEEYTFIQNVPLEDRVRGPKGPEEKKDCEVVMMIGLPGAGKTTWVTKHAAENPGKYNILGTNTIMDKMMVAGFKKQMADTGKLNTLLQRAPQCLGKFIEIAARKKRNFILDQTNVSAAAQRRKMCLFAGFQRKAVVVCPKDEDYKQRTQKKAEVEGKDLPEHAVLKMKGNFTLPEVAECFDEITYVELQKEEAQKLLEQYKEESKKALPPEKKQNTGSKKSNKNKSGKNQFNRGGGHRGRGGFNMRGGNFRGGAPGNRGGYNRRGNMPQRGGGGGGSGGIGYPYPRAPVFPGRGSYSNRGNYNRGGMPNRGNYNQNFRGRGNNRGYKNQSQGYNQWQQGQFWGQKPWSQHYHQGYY
UniProt Q92598: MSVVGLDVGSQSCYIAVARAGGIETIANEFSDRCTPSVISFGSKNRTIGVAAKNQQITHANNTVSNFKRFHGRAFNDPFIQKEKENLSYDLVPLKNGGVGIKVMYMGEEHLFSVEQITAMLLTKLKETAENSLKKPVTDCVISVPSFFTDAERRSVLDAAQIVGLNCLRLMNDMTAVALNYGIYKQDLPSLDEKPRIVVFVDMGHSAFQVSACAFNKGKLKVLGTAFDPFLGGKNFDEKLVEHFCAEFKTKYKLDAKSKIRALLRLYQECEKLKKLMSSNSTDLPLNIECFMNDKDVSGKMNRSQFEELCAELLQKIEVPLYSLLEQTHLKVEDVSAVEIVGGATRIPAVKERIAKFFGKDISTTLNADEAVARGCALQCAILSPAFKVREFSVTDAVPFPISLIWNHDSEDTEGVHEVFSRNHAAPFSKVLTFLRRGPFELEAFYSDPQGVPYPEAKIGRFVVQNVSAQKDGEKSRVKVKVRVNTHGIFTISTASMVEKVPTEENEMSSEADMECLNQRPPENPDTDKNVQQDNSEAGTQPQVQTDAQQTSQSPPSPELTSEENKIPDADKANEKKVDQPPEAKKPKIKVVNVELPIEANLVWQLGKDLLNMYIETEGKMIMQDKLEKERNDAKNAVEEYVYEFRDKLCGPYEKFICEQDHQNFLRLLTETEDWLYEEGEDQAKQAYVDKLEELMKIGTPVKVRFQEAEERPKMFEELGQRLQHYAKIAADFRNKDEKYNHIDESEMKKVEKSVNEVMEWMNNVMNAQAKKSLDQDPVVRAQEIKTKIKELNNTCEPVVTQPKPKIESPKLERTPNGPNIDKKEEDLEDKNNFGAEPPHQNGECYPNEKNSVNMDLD
UniProt Q5SSJ5: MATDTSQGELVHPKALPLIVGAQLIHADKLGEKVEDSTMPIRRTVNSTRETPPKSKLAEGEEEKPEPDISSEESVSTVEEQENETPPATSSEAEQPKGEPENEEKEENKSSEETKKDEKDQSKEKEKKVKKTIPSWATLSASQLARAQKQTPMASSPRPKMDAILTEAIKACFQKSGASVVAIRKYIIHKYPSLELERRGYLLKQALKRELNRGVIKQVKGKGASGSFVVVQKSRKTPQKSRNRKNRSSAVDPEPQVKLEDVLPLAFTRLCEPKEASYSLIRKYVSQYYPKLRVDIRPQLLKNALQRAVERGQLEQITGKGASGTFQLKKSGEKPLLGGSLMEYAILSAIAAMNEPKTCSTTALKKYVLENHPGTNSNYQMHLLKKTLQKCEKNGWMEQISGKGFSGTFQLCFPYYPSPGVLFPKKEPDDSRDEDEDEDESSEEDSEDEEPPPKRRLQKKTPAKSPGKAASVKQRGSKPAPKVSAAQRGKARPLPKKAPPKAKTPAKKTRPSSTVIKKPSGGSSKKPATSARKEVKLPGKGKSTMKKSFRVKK
UniProt P38646: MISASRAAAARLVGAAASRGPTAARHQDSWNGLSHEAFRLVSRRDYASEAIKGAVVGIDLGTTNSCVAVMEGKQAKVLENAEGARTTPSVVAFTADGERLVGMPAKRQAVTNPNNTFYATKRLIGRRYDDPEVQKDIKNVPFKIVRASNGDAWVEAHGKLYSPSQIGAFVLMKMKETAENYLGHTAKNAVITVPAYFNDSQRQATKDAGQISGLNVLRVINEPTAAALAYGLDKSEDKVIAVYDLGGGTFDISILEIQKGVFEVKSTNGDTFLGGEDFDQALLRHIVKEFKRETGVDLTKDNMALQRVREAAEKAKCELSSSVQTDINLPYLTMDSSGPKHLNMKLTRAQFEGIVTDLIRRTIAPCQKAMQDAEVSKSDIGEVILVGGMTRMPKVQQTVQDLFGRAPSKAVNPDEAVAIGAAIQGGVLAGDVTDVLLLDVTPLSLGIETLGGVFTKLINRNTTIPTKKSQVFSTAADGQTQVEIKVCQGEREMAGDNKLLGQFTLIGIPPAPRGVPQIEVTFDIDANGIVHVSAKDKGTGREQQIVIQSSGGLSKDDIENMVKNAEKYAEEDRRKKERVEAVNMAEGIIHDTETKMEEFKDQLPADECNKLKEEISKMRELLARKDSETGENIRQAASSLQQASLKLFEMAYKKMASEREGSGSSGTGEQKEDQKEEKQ
UniProt Q86VS8: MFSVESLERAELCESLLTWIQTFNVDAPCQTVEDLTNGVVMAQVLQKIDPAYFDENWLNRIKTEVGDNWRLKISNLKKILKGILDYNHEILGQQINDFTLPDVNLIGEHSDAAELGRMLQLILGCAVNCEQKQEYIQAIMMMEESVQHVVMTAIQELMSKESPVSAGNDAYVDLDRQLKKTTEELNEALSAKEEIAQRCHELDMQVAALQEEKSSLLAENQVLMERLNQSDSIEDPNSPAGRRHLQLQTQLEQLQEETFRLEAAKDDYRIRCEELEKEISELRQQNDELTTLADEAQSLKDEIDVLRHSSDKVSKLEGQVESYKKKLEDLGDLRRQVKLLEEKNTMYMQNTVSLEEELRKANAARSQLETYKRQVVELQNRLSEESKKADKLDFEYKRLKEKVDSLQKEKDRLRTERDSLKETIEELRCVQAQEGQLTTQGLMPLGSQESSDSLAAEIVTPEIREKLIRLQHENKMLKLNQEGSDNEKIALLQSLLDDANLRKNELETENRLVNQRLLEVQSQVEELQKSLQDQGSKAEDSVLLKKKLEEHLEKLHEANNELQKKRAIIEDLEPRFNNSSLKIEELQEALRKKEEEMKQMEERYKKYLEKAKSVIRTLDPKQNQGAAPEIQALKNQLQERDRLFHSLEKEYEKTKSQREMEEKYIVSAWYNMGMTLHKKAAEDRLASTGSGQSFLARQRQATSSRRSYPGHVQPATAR
UniProt P31937: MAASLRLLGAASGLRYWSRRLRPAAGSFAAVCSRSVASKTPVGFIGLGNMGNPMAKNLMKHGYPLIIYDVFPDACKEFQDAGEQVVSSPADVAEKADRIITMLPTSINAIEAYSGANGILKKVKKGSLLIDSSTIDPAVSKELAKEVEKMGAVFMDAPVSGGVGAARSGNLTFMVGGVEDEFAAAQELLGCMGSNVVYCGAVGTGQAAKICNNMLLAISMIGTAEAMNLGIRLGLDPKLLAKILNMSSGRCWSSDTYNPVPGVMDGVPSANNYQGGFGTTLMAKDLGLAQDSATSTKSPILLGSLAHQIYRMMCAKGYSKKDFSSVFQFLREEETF
UniProt P82970: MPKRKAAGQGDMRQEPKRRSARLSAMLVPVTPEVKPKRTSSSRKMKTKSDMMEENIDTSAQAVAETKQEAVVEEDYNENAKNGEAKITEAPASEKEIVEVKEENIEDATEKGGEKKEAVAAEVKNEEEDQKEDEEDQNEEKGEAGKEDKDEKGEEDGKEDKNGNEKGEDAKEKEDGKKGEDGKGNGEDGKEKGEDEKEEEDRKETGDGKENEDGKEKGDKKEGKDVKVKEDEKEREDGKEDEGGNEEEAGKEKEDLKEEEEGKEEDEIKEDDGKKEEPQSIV

[2] = compound: NC(=O)c1cnc(N[C@@H]2CCCC[C@@H]2N)nc1Nc1cccc(-n2nccn2)c1
In short: as §1

[3] = compound: NC1(c2ccc(-c3nc4ccn5c(=O)[nH]nc5c4cc3-c3ccccc3)cc2)CCC1
In short: as §1

[4] = compound: NCC(=O)Nc1ccc(-n2nc(C(F)(F)F)cc2-c2ccc3c(ccc4ccccc43)c2)cc1
In short: as §1

[5] = compound: Nc1ccccc1NC(=O)c1ccc(CNC(=O)OCc2cccnc2)cc1 [entinostat]
In short: as §1

[6] = compound: O=C(CCCCCCC(=O)Nc1ccccc1)NO [vorinostat]
In short: as §1

[7] = compound: O=C(CCCCCCNC(=O)c1cnc(N(c2ccccc2)c2ccccc2Cl)nc1)NO [citarinostat]
In short: as §1

[8] = compound: O=C(O)c1ccc2c(c1)nc(Nc1cccc(Cl)c1)c1ccncc12 [silmitasertib]
In short: as §1

[9] = compound: O=C1NC(=O)C(c2cnc3ccccn23)=C1c1cn2c3c(cc(F)cc13)CN(C(=O)N1CCCCC1)CC2
In short: as §1

[10] = compound: c1cc(OCCN2CCCCC2)cc(-c2n[nH]c3ccc(-c4nnc[nH]4)cc23)c1
In short: as §1

Measured: log2 fold change

HNRNPA0 (UniProt Q13151)
inactive: [1] 0.08 | [2] 0.042 | [3] 0.224 | [4] -0.03 | [5] 0.029 | [6] -0.034 | [7] -0.004 | [8] 0.099 | [9] 0.079 | [10] 0.077

HMGA1 (UniProt P17096)
inactive: [1] 0 | [2] 0.07 | [3] 0.309 | [4] 0.046 | [5] -0.099 | [6] -0.017 | [7] -0.138 | [8] -0.139 | [9] 0.107 | [10] -0.06

HSP90B1 (UniProt P14625)
inactive: [1] -0.02 | [2] -0.013 | [3] 0.018 | [4] 0.008 | [5] 0.001 | [6] -0.009 | [7] -0.02 | [8] -0.032 | [9] -0.038 | [10] -0.048

HNRNPLL (UniProt Q8WVV9)
inactive: [1] -0.169 | [2] -0.028 | [3] -0.151 | [4] -0.072 | [5] 0.184 | [6] 0.231 | [7] 0.202 | [8] -0.049 | [9] -0.268 | [10] -0.18

HGH1 (UniProt Q9BTY7)
inactive: [1] 0.025 | [2] 0.046 | [3] 0.021 | [4] 0.043 | [5] 0.094 | [6] 0.024 | [7] -0.069 | [8] 0.11 | [9] 0.097 | [10] -0.058

HSPA13 (UniProt P48723)
inactive: [1] -0.007 | [2] 0.092 | [3] -0.049 | [4] 0.05 | [5] -0.022 | [6] 0.039 | [7] 0.078 | [8] -0.001 | [9] -0.039 | [10] -0.072

HNRNPD (UniProt Q14103)
inactive: [1] -0.001 | [2] 0.173 | [3] 0.222 | [4] 0.08 | [5] -0.075 | [6] -0.02 | [7] -0.115 | [8] 0.096 | [9] 0.107 | [10] -0.08

ICAM1 (UniProt P05362)
inactive: [1] 0.016 | [2] 0.109 | [3] 0.087 | [4] 0.008 | [5] -0.026 | [6] -0.008 | [7] 0.024 | [8] -0.028 | [9] -0.07 | [10] -0.06

HSPB11 (UniProt Q9Y547)
inactive: [1] -0.014 | [2] -0.065 | [3] 0.075 | [4] -0.078 | [5] 0.012 | [6] -0.01 | [7] 0.057 | [8] -0.018 | [9] -0.024 | [10] -0.04

HSPA1A (UniProt P0DMV8)
inactive: [1] -0.003 | [2] 0.025 | [3] 0.066 | [4] 0.025 | [5] -0.002 | [6] -0.062 | [7] -0.069 | [8] -0.025 | [9] -0.012 | [10] -0.017

HRAS (UniProt P01112)
inactive: [1] 0.103 | [2] 0.233 | [3] 0.071 | [5] -0.012 | [6] -0.009 | [7] -0.067 | [8] 0.003 | [9] 0 | [10] 0.007
active: [4] 0.366

ICAM4 (UniProt Q14773)
inactive: [1] 0.098 | [2] -0.044 | [3] -0.057 | [4] 0.032 | [5] 0.03 | [6] -0.091 | [7] 0.023 | [8] 0.028 | [9] 0 | [10] -0.203

HMGCLL1 (UniProt Q8TB92)
inactive: [1] -0.036 | [2] -0.053 | [3] -0.08 | [4] -0.082 | [5] 0.01 | [6] -0.06 | [7] -0.046 | [8] -0.045 | [9] -0.028 | [10] 0.008

HNRNPH3 (UniProt P31942)
inactive: [1] 0.076 | [2] 0.207 | [3] 0.36 | [4] 0.029 | [5] -0.03 | [6] 0.039 | [7] 0.01 | [8] 0.137 | [9] 0.251 | [10] -0.212

HNRNPH1 (UniProt P31943)
inactive: [1] 0.052 | [2] -0.023 | [3] -0.075 | [4] -0.059 | [5] 0.118 | [6] 0.168 | [7] 0.09 | [8] 0.024 | [9] -0.105 | [10] -0.074

HNRNPA2B1 (UniProt P22626)
inactive: [1] -0.025 | [2] 0.086 | [3] 0.401 | [4] 0.081 | [5] -0.037 | [6] 0.015 | [7] -0.123 | [8] 0.322 | [9] 0.196 | [10] -0.175

HPCAL1 (UniProt P37235)
inactive: [1] 0.033 | [2] -0.014 | [3] -0.152 | [4] -0.032 | [5] 0.006 | [6] -0.018 | [7] 0.032 | [8] 0.028 | [9] -0.03 | [10] -0.032

HSP90AA4P (UniProt Q58FG1)
inactive: [1] -0.318 | [2] -0.355 | [3] -0.201 | [4] -0.233 | [5] -0.079 | [6] -0.065 | [7] -0.018 | [8] 0.13 | [9] -0.112 | [10] -0.151

HNRNPU (UniProt Q00839)
inactive: [1] -0.075 | [2] -0.079 | [3] -0.014 | [4] -0.007 | [5] 0.075 | [6] 0.13 | [7] 0.038 | [8] 0.048 | [9] 0.145 | [10] -0.248

HSP90AA1 isoform 2 (UniProt P07900)
inactive: [1] -0.027 | [2] -0.003 | [3] -0.088 | [4] -0.028 | [5] 0.014 | [6] 0.025 | [7] 0.006 | [8] -0.015 | [9] -0.026 | [10] 0.01

HSPH1 (UniProt Q92598)
inactive: [1] -0.039 | [2] -0.005 | [3] -0.034 | [4] -0.015 | [5] 0.033 | [6] 0.024 | [7] 0.014 | [8] 0.047 | [9] -0.038 | [10] -0.019

HIST2H2BF isoform 2 (UniProt Q5QNW6)
inactive: [1] 0.048 | [2] 0.225 | [3] 0.48 | [4] -0.029 | [5] 0.159 | [6] 0.123 | [7] -0.001 | [8] -0.064 | [9] 0.101 | [10] 0.016

HP1BP3 (UniProt Q5SSJ5)
inactive: [1] 0.026 | [2] -0.057 | [3] 0.043 | [4] -0.034 | [5] 0.025 | [6] 0.132 | [7] 0.113 | [8] -0.048 | [9] 0.067 | [10] -0.023

HPRT1 (UniProt P00492)
inactive: [1] 0.042 | [2] 0.036 | [3] 0.014 | [4] 0.079 | [5] -0.014 | [6] -0.004 | [7] 0.022 | [8] -0.025 | [9] -0.031 | [10] -0.06

HSPA9 (UniProt P38646)
inactive: [1] 0.032 | [2] 0.015 | [3] 0.035 | [4] 0.013 | [5] -0.007 | [6] -0.013 | [7] -0.026 | [8] -0.015 | [9] -0.014 | [10] 0.01

HOOK3 (UniProt Q86VS8)
inactive: [1] 0.05 | [2] -0.077 | [3] -0.079 | [4] -0.081 | [5] 0.063 | [6] 0.056 | [7] -0.022 | [8] 0.101 | [9] -0.049 | [10] -0.05

HIBADH (UniProt P31937)
inactive: [1] 0.019 | [2] 0.017 | [3] 0.021 | [4] -0.003 | [5] -0.005 | [6] 0.005 | [7] 0.011 | [8] -0.026 | [9] 0.095 | [10] -0.029

HTRA2 (UniProt O43464)
inactive: [1] 0.025 | [2] -0.057 | [3] -0.063 | [4] 0.038 | [5] -0.002 | [6] 0.07 | [7] 0.025 | [8] -0.001 | [9] -0.035 | [10] -0.026

HMGN5 (UniProt P82970)
inactive: [1] 0.037 | [2] 0.145 | [3] 0.039 | [4] -0.054 | [5] -0.031 | [6] -0.019 | [7] 0.016 | [8] -0.015 | [9] -0.022 | [10] 0.04

Quoted at random: 2 records from the list.
HMGN5 (UniProt P82970)
inactive: [1] 0.037 | [2] 0.145 | [3] 0.039 | [4] -0.054 | [5] -0.031 | [6] -0.019 | [7] 0.016 | [8] -0.015 | [9] -0.022 | [10] 0.04

HTRA2 (UniProt O43464)
inactive: [1] 0.025 | [2] -0.057 | [3] -0.063 | [4] 0.038 | [5] -0.002 | [6] 0.07 | [7] 0.025 | [8] -0.001 | [9] -0.035 | [10] -0.026

— the supplement of paper PMC10849652
